Laboratory results published in the supplement of paper PMC12067093, “Discovery and optimisation of a covalent ligand for TRIM25 and its application to targeted protein ubiquitination” (Chemical Science, 2025).
Some of the results follow.

The chains behind the UniProt entries cited, without tags or fusion partners. Where a name states a change or a piece, a line headed by the entry shows the natural chain unless it says otherwise.
UniProt P31153, whole entry, looked up: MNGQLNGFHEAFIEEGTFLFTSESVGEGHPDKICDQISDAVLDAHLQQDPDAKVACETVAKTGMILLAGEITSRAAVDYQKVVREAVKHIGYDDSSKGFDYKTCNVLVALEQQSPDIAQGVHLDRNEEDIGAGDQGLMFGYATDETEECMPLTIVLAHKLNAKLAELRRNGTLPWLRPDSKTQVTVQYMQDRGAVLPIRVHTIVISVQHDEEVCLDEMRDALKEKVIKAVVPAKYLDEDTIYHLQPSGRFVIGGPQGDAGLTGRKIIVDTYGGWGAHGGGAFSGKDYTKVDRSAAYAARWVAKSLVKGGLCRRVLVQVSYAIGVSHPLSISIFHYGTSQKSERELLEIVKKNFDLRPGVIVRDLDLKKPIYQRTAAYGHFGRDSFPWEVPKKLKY
UniProt P27361, whole entry, looked up: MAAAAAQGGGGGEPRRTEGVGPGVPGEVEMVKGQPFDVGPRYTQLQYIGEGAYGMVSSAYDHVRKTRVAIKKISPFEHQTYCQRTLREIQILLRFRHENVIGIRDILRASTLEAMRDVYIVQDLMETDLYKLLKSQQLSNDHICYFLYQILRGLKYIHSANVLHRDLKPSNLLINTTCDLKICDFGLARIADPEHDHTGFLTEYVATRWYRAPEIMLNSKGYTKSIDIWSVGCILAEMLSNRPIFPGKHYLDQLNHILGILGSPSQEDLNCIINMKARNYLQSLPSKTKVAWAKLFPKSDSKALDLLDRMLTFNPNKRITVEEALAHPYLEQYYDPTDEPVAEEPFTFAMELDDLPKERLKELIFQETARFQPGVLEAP
UniProt Q99698: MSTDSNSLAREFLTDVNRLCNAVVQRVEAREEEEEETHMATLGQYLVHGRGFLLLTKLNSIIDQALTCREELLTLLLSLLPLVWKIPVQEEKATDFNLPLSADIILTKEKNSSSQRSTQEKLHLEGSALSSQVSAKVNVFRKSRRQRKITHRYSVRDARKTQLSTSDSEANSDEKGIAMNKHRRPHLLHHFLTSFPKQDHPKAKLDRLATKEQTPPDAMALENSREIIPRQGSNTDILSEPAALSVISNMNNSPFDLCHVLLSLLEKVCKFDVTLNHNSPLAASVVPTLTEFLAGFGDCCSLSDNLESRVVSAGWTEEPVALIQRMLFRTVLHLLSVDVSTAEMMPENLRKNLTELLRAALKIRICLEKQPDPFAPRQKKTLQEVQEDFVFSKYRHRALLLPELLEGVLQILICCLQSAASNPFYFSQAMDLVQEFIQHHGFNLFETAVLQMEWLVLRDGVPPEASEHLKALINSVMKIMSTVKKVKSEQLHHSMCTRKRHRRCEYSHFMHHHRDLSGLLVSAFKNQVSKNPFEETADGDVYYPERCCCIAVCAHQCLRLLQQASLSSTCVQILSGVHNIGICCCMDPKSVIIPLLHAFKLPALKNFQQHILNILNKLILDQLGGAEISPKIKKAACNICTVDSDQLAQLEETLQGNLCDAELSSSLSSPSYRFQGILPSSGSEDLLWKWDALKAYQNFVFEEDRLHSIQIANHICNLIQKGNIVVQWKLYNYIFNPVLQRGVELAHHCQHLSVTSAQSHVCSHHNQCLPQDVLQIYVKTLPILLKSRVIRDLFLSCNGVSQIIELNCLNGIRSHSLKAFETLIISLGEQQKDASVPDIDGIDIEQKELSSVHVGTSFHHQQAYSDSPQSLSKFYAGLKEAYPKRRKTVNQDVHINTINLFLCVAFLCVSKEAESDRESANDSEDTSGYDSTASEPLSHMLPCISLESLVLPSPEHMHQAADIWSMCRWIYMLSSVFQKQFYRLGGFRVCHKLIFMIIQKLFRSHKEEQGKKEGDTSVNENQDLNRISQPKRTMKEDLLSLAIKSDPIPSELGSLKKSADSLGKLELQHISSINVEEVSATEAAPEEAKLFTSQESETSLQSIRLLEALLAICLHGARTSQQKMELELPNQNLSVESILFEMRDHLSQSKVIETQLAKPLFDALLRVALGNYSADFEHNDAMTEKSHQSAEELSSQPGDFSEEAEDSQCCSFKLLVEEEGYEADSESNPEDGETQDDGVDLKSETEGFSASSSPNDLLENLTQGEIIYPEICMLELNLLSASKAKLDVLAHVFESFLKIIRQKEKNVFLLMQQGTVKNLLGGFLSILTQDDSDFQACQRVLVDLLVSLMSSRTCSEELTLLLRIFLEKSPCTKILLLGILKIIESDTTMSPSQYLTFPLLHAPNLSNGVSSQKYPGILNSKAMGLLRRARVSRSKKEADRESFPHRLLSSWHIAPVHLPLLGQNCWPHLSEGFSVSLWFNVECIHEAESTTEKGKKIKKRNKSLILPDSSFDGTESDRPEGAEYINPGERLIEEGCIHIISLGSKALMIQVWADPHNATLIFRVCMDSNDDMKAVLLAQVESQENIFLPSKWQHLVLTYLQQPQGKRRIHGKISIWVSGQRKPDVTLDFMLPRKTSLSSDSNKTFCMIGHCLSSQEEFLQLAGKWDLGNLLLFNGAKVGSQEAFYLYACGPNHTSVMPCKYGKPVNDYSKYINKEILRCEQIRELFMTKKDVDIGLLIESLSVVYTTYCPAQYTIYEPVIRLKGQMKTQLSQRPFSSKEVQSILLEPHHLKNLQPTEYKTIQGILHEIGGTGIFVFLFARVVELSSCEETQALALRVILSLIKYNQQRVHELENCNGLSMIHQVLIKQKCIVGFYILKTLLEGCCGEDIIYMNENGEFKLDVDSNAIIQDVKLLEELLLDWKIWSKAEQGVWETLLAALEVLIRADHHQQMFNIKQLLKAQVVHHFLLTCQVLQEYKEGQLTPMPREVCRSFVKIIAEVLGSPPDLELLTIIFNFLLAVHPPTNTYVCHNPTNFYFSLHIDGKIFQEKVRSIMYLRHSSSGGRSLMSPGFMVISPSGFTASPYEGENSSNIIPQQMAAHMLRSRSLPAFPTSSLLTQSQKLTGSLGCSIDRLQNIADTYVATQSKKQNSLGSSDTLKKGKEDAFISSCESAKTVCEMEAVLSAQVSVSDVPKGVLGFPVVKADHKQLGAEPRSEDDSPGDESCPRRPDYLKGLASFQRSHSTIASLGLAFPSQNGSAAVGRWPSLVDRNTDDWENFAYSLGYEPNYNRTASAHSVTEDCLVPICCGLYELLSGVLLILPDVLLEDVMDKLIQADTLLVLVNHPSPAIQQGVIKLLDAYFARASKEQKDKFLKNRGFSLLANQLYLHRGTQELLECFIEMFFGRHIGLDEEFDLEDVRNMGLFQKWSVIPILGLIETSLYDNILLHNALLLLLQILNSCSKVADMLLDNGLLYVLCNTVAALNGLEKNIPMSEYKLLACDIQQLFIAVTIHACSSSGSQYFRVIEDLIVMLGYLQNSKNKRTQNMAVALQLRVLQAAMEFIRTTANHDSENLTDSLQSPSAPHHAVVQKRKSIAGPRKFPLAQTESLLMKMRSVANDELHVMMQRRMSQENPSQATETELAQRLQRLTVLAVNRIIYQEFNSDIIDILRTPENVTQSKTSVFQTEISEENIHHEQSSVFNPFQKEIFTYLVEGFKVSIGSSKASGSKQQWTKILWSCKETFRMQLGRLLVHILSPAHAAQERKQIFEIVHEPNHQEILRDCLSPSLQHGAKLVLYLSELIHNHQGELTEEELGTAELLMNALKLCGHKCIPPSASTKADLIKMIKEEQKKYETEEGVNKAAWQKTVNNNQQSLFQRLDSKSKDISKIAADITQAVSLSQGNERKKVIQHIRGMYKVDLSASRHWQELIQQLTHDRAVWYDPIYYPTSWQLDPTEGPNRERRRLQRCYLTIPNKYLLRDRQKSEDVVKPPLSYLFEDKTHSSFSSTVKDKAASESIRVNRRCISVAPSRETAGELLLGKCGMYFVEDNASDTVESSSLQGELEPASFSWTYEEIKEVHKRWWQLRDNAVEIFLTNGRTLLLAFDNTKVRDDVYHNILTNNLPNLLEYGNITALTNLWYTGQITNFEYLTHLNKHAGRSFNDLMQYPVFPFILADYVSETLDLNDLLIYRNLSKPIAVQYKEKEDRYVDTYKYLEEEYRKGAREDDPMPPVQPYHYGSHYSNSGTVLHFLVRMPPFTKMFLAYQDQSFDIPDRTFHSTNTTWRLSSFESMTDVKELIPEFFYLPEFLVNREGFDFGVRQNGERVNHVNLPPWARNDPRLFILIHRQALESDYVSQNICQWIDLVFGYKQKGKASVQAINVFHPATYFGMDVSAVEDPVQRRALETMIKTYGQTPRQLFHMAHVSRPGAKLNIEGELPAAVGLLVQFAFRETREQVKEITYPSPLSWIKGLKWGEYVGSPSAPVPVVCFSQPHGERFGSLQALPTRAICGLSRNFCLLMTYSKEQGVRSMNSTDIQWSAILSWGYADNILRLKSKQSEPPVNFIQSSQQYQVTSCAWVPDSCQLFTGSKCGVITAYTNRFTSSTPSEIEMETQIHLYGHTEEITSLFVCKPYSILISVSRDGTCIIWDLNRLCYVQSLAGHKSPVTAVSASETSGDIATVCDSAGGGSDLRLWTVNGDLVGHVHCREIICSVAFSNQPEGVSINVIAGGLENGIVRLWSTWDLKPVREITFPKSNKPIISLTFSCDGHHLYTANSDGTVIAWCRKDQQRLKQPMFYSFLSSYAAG
UniProt O75608: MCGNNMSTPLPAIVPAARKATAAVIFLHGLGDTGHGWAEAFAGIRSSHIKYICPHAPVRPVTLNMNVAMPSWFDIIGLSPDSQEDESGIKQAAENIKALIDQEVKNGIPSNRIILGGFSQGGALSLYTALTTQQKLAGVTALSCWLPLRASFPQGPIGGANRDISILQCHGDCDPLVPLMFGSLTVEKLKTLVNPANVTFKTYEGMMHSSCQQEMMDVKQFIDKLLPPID
UniProt P52564: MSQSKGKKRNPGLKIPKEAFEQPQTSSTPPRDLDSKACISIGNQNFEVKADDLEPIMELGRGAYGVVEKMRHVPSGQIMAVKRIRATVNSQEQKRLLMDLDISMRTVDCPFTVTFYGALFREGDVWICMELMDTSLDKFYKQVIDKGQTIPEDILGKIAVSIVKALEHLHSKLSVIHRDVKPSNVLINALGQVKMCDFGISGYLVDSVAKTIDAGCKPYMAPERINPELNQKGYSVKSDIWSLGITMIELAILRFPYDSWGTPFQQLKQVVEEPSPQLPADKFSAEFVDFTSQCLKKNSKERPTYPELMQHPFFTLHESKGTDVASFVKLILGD
UniProt Q66K74: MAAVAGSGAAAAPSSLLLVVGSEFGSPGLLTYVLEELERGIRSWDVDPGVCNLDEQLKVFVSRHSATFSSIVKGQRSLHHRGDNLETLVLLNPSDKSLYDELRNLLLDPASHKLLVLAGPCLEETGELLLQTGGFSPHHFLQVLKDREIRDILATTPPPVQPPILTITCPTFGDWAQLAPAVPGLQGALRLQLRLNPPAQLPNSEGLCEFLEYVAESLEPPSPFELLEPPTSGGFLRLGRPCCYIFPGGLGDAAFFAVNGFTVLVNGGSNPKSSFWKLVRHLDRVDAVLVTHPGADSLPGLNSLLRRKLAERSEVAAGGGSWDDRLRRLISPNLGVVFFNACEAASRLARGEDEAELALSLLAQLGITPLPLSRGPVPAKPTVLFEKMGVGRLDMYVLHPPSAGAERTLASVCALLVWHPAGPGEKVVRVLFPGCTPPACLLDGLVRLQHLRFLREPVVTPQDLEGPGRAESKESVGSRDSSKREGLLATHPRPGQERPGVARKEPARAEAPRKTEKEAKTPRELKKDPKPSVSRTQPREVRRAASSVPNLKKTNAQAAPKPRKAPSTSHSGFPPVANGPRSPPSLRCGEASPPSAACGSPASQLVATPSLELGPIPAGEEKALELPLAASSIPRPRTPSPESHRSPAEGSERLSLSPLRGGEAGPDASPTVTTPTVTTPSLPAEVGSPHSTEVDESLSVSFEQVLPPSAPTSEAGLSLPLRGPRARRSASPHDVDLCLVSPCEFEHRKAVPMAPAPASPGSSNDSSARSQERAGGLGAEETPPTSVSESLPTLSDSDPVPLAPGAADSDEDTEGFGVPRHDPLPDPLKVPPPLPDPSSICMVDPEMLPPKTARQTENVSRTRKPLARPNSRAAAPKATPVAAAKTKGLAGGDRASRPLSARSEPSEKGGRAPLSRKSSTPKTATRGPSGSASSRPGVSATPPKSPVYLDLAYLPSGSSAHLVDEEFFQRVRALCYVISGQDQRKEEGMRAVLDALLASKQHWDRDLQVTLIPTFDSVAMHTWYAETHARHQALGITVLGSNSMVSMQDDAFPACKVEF

Compound: Cc1cc(ccc1-c1ccccc1)C(=O)N1CCCN(CC1)C(=O)CCl [compound 10]
Assay: probe-labelled cysteine peptide fold change vs DMSO (competition) (log2 fold change); higher = less target engagement (more negative = stronger competition)
Conditions: 10 µM; THP-1; incubation time: 4 h
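Also: competitive profiling in live THP-1 cells: cysteine peptides tagged with an iodoacetamide desthiobiotin (IA-DTB) probe, intensity after compound treatment relative to DMSO-treated cells.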

Target | probe-labelled cysteine peptide fold change
LY75_O60449_597_AVTFSNWNFLEPASPGGCVAMSTGK (UniProt O60449) | -0.107
MAT2A_P31153_34_ICDQISDAVLDAHLQQDPDAK (UniProt P31153) | -0.355
MAT2B_Q9NZL9_58_EFQQNNWHAVGCGFR (UniProt Q9NZL9) | 0.0464
MARS_P56192_309_QWNTLYLCGTDEYGTATETK (UniProt P56192) | -0.0161
MAPK3_P27361_82_ISPFEHQTYCQR (UniProt P27361) | -0.00572
MAP3K4_Q9Y6R4_1322_NIIGQVCDTPK (UniProt Q9Y6R4) | -0.0143
MAT2A_P31153_214_VHTIVISVQHDEEVCLDEMRDALK (UniProt P31153) | -0.209
MAP4_P27816_635_CSLPAEEDSVLEK (UniProt P27816) | -0.14
MAN2C1_Q9NTJ4_584_LLLLNQFHDVVTGSCIQMVAEEAMCHYEDIR (UniProt Q9NTJ4) | 0.499
LYST_Q99698_1646+1651_TFCMIGHCLSSQEEFLQLAGK (UniProt Q99698) | -0.181
MAP2K7_O14733_280_SAGCAAYMAPER (UniProt O14733) | -0.121
MAPRE1_Q15691_228_NIELICQENEGENDPVLQR (UniProt Q15691) | 0.196
LYAR_Q9NX58_6_VFFTCNACGESVKK (UniProt Q9NX58) | 0.047
LYPLA1_O75608_169_DISILQCHGDCDPLVPLMFGSLTVEK (UniProt O75608) | 0.178
LYZ_P61626_48_GISLANWMCLAK (UniProt P61626) | -0.195
MBLAC2_Q68D91_212_ISDYVGTCER (UniProt Q68D91) | 0.0556
MAP2K6_P52564_294_FSAEFVDFTSQCLK (UniProt P52564) | -0.0327
MAU2_Q9Y6X3_145_AIQISQQTPYWHCR (UniProt Q9Y6X3) | 0.0736

Target | probe-labelled cysteine peptide fold change
LY75_O60449_1060_YHCALILNLQK (UniProt O60449) | -0.0365
MAT2B_Q9NZL9_263_YEMACAIADAFNLPSSHLRPITDSPVLGAQRPR (UniProt Q9NZL9) | -0.198
LZTS1_Q9Y250_450_GLELEVCENELQR (UniProt Q9Y250) | -0.0879
LUC7L_Q9NQ29_97_DLFFELDAMDHLESFIAECDRR (UniProt Q9NQ29) | 0.323
MBNL2_Q5VZF2_43_SCQVENGR (UniProt Q5VZF2) | -0.15
MAP2K3_P46734_29_ISCMSKPPAPNPTPPR (UniProt P46734) | -0.299
MACF1_Q9UPN3_3619_QQNTCHQQLEDLCSWVGQAER (UniProt Q9UPN3) | 0.258
MARS2_Q96GW9_336+344_ICVHSHWTVCGQK (UniProt Q96GW9) | 0.163
MAP7D1_Q3KQU3_373_SASASPLTPCSVTR (UniProt Q3KQU3) | -0.336
MAP1S_Q66K74_440_VLFPGCTPPACLLDGLVR (UniProt Q66K74) | -0.12
MALT1_Q9UDY8_667_HCLYTR (UniProt Q9UDY8) | -0.0226
MATR3_P43243_293+296_GYPHLCSICDLPVHSNK (UniProt P43243) | 0.125
LYPLA1_O75608_173_DISILQCHGDCDPLVPLMFGSLTVEK (UniProt O75608) | 0.0175
MAP3K1_Q13233_1012_LQGFIPCR (UniProt Q13233) | -0.192
MAP1S_Q66K74_975_ALCYVISGQDQR (UniProt Q66K74) | -0.121
MAGT1_Q9H0U3_90_QCVVCK (UniProt Q9H0U3) | -0.185
LYST_Q99698_1855_VHELENCNGLSMIHQVLIK (UniProt Q99698) | -0.138
